The list is a part of this screen's results and no random one: it gathers tests that were run many times, whatever their T/C, doses with no T/C, and many T/C values between a quarter and a half above the control. Further doses and runs are listed elsewhere. T/C is the treated group as % of the vehicle group. Some entries give survivors of the animals treated and no T/C: the source holds a T/C of zero for them, seemingly a mark for toxic or unscored doses. Some doses without a T/C left all or most animals alive at the check, yet need not have been tolerated: the source hardly ever lists a survival T/C far under the control, and the zero likely stands for such cases as well. Survivors were counted at the toxicity check, usually on the fifth day, unless a day is given; later deaths do not show. Schedules are NCI's codes, taken here to give the interval after Q, in days (D) or hours (H), and the number of doses after X. Some structures stand for samples that the source files as different forms (salt, stereo form or complex); doses refer to the form tested. Some entries hold several experiments; the results are listed from low to high. Marks such as (2×) say how often a value occurs here. For survival time, the PubChem record calls one and a half times the control and up active, and a quarter to a half above the control has no call in these data; cut-offs in other NCI protocols can differ. Some T/C values carry the count of animals alive at the toxicity check (mostly the fifth day); where none is given, no animal had died by that day.
Tested on: P388 leukemia ip, CD2F1 mice, survival T/C
Assay: NCI In Vivo Anticancer Drug Screen. Data for tumor model P388 Leukemia (intraperitoneal) in CD2F1 (CDF1) mice
Settings: T/C endpoint: median survival time, higher T/C = longer survival
[1] = dose: 80.0 mg/kg/injection, schedule: Q01DX005 (ip), vehicle: Klucel (hydroxypropylcellulose) (HPC)
[2] = dose: 80.0 mg/kg/injection, schedule: Q01DX009 (ip), vehicle: Klucel (hydroxypropylcellulose) (HPC)
[3] = dose: 100.0 mg/kg/injection, schedule: Q01DX001 (ip), vehicle: Klucel (hydroxypropylcellulose) (HPC)
[4] = dose: 200.0 mg/kg/injection, schedule: Q01DX001 (ip), vehicle: Klucel (hydroxypropylcellulose) (HPC)
[5] = dose: 240.0 mg/kg/injection, schedule: Q04DX003 (ip), vehicle: Klucel (hydroxypropylcellulose) (HPC)
[6] = dose: 400.0 mg/kg/injection, schedule: Q01DX001 (ip), vehicle: Klucel (hydroxypropylcellulose) (HPC)

Structure (SMILES): COc1cc2c[n+](C)c3c4cc5c(cc4ccc3c2cc1OC)OCO5
- survivor count (dose: 64.0 mg/kg/injection, schedule: Q01DX009 (ip), vehicle: water): 1 of 10
- survivor count (dose: 64.0 mg/kg/injection, schedule: Q01DX009 (sc), vehicle: water): 6 of 10
- survivor count (dose: 64.0 mg/kg/injection, schedule: Q03HX008 (ip), vehicle: saline with Tween-80): 9 of 10
- survivor count (dose: 64.0 mg/kg/injection, schedule: Q04DX003 (ip), vehicle: water): 9 of 10
- T/C (dose: 64.0 mg/kg/injection, schedule: Q08DX002 (ip), vehicle: saline with Tween-80): 144 % of control
- T/C (dose: 72.0 mg/kg/injection, schedule: Q04DX003 (ip), vehicle: distilled water + Tween-80): 133 % of control
- T/C [1]: 87, 91, 95, 107, 115, 125, 170 % of control
- survivor count [1]: 3 of 6, 2 of 3, 5 of 6, 3 of 3, 6 of 6
- T/C [2]: 90, 91, 92, 93, 95, 104, 118, 141, 156 % of control
- survivor count [2]: 0 of 6, 1 of 3, 2 of 3, 4 of 6, 5 of 6, 3 of 3 (2×), 6 of 6 (2×)
- survivor count (dose: 80.0 mg/kg/injection, schedule: Q01DX009 (ip), vehicle: water): 4 of 6
- T/C [3]: 115, 122 [5 of 6 alive], 123, 124, 127, 128, 134, 138, 139, 143 (2×), 145 (2×), 146, 147, 150 (2×), 153, 154, 157, 160 (2×), 166, 168, 170, 171, 174, 177, 180 (2×), 200 % of control
- survivor count [3]: 6 of 6
- survivor count (dose: 100.0 mg/kg/injection, schedule: Q01DX009 (ip), vehicle: saline with Tween-80): 3 of 6
- T/C (dose: 100.0 mg/kg/injection, schedule: Q04DX002 (ip), vehicle: Klucel (hydroxypropylcellulose) (HPC)): 144 % of control
- T/C (dose: 120.0 mg/kg/injection, schedule: Q04DX002 (ip), vehicle: Klucel (hydroxypropylcellulose) (HPC), evaluated on day 30): 99 [2 of 3 alive], 104, 108, 113, 117, 119 [2 of 3 alive], 121, 123, 125, 127, 128, 133 (2×), 134, 138, 146, 150 (3×), 153, 162, 165 (2×), 166 [2 of 3 alive], 168, 172, 183, 192, 202, 203, 204 % of control
- T/C (dose: 120.0 mg/kg/injection, schedule: Q04DX002 (ip), vehicle: Klucel (hydroxypropylcellulose) (HPC), evaluated on day 35): 149, 158, 168 % of control
- survivor count (dose: 120.0 mg/kg/injection, schedule: Q04DX002 (ip), vehicle: Klucel (hydroxypropylcellulose) (HPC)): 3 of 3 and 6 of 6
- T/C (dose: 120.0 mg/kg/injection, schedule: Q04DX003 (ip), vehicle: Klucel (hydroxypropylcellulose) (HPC)): 100, 106, 110, 116, 117 (2×), 122 (3×), 126, 133, 134, 137 (2×), 139, 142, 143 [2 of 3 alive], 144, 145, 148, 149, 150, 151, 152, 153, 155, 157, 159, 167, 169, 170, 172, 191 % of control (2×)
- T/C (dose: 128.0 mg/kg/injection, schedule: Q01DX001 (ip), vehicle: saline with Tween-80): 144 % of control
- survivor count (dose: 128.0 mg/kg/injection, schedule: Q01DX001 (ip), vehicle: water): 1 of 10
- survivor count (dose: 128.0 mg/kg/injection, schedule: Q01DX001 (sc), vehicle: water): 10 of 10
- survivor count (dose: 128.0 mg/kg/injection, schedule: Q01DX009 (ip), vehicle: saline with Tween-80): 9 of 10
- survivor count (dose: 128.0 mg/kg/injection, schedule: Q04DX003 (ip), vehicle: water): 0 of 10
- survivor count (dose: 128.0 mg/kg/injection, schedule: Q08DX002 (ip), vehicle: water): 0 of 10
- T/C [4]: 90, 95, 116, 119, 121, 127, 127 [5 of 6 alive], 129 [5 of 6 alive], 131 [5 of 6 alive], 132, 136, 139, 142, 148, 150, 152 (2×), 154, 156 (2×), 157 (2×), 161, 163, 165, 166, 170 [5 of 6 alive], 181, 205 % of control
- survivor count [4]: 3 of 3 and 6 of 6
- survivor count (dose: 200.0 mg/kg/injection, schedule: Q04DX003 (ip), vehicle: distilled water + Tween-80): 6 of 8
- T/C (dose: 240.0 mg/kg/injection, schedule: Q04DX002 (ip), vehicle: Klucel (hydroxypropylcellulose) (HPC), evaluated on day 30): 87, 89, 91 (2×), 94, 100 (2×), 101, 104, 105, 109, 112, 113, 123, 125, 127, 132 [5 of 6 alive], 133, 136, 140 (2×), 152, 171, 175, 188 % of control
- T/C (dose: 240.0 mg/kg/injection, schedule: Q04DX002 (ip), vehicle: Klucel (hydroxypropylcellulose) (HPC), evaluated on day 35): 104 and 109 % of control
- survivor count (dose: 240.0 mg/kg/injection, schedule: Q04DX002 (ip), vehicle: Klucel (hydroxypropylcellulose) (HPC)): 2 of 3, 5 of 6 (2×), 3 of 3, 6 of 6
- T/C [5]: 87, 89, 91 (2×), 94 (4×), 95 [2 of 3 alive], 98, 98 [5 of 6 alive], 99 (3×), 102, 104, 105 (3×), 107, 108, 111, 116, 119, 121, 134, 148, 195 % of control
- survivor count [5]: 2 of 3, 5 of 6, 3 of 3, 6 of 6
- T/C [6]: 86, 87 [5 of 6 alive], 88 [2 of 3 alive], 90 [4 of 6 alive], 91, 95, 96 (2×), 96 [4 of 6 alive], 97, 102, 103, 108 [2 of 3 alive], 109 [5 of 6 alive], 110 [5 of 6 alive], 112 (2×), 116, 121 (3×), 133, 138, 142, 200 % of control
- survivor count [6]: 1 of 3, 4 of 6, 5 of 6, 3 of 3, 6 of 6
- survivor count (dose: 400.0 mg/kg/injection, schedule: Q04DX002 (ip), vehicle: Klucel (hydroxypropylcellulose) (HPC)): 6 of 6
- survivor count (dose: 512.0 mg/kg/injection, schedule: Q01DX001 (ip), vehicle: saline with Tween-80): 4 of 10

Source: PubChem BioAssay AID330 (DTP/NCI, 2004)
